The other results are listed elsewhere or left out.

Protein sequences, listed by entry. Tags and fused reporters are not part of them. Lines headed by an entry give the natural chain unless they say otherwise; changes in a name come on top.
UniProt Q9NVT9: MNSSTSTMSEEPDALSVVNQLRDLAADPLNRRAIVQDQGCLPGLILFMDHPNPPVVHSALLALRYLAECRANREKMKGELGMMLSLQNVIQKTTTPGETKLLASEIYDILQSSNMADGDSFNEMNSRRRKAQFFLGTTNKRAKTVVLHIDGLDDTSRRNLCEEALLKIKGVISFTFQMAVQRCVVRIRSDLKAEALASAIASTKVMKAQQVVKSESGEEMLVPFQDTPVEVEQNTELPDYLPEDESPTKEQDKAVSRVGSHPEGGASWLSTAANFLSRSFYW
UniProt Q9UH62: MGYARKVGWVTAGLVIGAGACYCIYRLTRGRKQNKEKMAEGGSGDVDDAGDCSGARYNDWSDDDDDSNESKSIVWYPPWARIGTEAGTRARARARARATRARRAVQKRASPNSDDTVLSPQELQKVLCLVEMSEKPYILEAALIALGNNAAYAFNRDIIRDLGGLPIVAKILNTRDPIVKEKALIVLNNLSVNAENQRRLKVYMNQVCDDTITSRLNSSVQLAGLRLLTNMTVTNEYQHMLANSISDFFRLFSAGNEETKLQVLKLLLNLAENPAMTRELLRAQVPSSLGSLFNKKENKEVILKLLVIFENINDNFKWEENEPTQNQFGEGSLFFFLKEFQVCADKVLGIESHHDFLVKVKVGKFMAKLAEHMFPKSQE
UniProt P56378: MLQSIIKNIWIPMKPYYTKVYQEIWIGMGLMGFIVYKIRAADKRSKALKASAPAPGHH
UniProt Q9Y294, whole entry, looked up: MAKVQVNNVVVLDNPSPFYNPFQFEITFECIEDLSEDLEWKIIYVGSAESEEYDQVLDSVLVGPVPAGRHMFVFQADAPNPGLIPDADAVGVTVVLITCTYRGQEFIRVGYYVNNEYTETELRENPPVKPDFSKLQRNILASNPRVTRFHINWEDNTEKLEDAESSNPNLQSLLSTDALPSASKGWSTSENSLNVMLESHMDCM
UniProt Q13315: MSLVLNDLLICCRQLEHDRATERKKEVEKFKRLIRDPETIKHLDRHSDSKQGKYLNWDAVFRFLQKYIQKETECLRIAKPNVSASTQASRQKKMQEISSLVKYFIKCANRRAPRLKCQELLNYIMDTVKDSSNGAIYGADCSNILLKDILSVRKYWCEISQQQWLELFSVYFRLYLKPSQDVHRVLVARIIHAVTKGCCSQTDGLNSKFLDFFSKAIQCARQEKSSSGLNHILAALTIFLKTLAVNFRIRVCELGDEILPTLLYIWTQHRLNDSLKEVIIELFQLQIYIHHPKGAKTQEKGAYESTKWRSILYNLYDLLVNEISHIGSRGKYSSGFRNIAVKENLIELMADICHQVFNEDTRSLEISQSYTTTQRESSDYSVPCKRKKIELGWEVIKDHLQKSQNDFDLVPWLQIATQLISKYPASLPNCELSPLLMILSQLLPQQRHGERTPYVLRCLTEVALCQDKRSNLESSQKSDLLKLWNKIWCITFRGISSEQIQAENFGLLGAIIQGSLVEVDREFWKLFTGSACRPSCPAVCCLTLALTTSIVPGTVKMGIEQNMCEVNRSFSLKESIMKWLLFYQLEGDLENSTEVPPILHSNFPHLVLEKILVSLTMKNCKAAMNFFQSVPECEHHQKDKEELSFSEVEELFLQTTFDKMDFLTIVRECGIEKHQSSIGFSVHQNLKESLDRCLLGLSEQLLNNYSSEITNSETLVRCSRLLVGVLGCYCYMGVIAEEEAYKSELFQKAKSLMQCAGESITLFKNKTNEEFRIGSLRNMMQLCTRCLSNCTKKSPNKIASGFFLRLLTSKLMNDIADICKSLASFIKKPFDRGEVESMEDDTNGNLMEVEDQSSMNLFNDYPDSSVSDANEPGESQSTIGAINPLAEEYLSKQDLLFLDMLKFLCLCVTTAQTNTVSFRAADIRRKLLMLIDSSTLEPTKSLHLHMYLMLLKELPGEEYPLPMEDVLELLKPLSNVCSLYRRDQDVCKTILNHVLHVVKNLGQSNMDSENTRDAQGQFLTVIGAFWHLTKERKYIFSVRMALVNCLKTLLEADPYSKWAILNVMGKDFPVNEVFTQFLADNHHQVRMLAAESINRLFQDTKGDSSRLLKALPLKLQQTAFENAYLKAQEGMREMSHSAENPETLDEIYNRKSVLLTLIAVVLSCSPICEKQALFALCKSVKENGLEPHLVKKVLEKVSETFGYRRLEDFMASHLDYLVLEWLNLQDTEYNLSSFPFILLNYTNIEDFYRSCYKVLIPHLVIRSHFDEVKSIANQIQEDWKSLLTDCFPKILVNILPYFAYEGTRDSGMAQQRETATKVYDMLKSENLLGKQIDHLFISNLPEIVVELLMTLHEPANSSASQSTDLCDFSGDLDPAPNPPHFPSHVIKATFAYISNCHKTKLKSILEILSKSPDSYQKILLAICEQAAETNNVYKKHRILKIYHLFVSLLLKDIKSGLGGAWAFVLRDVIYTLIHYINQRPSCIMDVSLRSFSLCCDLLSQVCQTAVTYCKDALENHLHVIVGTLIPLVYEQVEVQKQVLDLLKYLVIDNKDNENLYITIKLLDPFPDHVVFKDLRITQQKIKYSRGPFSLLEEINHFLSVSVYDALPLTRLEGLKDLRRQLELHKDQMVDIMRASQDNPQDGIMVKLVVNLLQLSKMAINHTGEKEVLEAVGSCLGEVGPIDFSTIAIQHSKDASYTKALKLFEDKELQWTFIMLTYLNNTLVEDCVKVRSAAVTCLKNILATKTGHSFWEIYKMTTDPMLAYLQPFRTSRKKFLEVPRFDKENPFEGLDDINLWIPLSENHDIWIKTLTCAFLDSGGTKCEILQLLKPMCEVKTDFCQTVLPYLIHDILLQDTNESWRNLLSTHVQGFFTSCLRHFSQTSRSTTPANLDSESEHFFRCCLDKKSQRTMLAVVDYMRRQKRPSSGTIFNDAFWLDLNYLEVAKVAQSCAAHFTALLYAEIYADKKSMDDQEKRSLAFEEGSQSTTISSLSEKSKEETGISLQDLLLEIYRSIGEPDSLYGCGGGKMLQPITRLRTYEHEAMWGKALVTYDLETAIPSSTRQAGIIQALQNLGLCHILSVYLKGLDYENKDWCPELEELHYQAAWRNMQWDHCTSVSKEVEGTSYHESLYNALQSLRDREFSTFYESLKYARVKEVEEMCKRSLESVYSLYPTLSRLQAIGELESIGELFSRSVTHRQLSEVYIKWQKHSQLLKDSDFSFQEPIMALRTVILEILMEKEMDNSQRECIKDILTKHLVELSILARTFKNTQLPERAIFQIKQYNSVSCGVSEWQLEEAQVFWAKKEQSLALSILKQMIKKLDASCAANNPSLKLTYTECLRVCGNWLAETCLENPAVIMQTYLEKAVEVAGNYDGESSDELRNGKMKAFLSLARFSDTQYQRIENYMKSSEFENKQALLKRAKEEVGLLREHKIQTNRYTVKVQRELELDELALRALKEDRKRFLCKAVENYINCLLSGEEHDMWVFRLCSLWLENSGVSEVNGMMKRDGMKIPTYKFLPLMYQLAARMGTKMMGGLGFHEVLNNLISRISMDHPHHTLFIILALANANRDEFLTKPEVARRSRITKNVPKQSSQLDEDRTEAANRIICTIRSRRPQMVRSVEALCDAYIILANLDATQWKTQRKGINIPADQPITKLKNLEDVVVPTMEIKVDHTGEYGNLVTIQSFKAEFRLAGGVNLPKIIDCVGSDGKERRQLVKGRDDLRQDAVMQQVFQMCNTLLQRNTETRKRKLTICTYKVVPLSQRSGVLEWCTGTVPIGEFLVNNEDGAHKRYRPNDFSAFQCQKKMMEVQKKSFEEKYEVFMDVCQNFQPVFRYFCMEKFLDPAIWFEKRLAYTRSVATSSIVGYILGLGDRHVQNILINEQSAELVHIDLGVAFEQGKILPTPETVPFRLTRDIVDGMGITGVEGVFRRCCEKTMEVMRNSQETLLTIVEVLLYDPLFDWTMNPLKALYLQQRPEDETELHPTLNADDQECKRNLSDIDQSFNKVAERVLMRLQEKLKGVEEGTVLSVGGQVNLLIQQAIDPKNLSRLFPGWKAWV
UniProt O95671: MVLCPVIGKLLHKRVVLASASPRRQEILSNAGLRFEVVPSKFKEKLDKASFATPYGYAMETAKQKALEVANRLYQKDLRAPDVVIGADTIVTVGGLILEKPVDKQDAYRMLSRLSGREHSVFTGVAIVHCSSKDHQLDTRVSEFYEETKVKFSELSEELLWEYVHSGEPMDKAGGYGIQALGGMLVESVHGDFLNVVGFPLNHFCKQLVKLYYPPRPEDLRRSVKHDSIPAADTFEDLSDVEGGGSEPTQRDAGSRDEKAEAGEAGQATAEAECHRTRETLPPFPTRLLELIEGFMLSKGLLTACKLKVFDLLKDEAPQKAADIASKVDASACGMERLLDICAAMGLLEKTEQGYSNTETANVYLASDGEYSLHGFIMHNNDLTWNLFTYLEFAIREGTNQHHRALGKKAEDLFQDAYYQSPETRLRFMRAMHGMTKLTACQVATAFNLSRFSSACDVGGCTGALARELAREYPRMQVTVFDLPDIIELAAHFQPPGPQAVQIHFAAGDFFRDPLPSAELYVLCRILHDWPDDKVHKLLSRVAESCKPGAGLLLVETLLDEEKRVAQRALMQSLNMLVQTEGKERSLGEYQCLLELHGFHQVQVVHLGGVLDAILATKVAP
UniProt Q676U5: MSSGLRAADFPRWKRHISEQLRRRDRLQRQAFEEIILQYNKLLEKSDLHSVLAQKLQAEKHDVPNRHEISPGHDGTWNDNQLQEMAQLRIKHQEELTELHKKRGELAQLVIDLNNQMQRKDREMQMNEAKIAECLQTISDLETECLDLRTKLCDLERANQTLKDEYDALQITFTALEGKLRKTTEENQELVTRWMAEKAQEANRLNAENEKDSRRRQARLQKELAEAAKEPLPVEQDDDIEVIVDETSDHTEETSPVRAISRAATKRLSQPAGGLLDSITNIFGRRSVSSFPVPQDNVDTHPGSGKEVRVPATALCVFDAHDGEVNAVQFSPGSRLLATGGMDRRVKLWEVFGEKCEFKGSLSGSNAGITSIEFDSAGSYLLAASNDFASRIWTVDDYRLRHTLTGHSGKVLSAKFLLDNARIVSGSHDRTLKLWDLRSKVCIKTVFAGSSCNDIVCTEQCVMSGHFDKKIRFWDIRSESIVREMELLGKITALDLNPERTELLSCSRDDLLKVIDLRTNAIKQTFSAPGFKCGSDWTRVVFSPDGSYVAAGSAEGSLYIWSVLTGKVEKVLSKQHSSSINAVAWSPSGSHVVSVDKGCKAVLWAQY
UniProt P38606, whole entry, looked up: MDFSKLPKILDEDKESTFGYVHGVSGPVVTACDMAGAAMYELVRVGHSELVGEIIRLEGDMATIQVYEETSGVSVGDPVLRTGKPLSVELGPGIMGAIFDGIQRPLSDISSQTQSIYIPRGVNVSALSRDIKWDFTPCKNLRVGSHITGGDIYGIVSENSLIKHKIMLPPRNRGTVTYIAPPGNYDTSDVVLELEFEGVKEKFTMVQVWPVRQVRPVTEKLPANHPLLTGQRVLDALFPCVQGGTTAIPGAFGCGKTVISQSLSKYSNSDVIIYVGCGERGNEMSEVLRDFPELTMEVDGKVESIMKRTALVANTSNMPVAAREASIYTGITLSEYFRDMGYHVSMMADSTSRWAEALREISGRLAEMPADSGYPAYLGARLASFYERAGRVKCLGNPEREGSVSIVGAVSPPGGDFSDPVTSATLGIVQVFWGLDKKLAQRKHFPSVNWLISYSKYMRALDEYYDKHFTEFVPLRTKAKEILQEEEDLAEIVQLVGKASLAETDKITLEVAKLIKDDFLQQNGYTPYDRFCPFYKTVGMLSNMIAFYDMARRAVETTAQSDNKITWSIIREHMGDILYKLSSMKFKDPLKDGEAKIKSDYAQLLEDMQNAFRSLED
UniProt O94817, whole entry, looked up: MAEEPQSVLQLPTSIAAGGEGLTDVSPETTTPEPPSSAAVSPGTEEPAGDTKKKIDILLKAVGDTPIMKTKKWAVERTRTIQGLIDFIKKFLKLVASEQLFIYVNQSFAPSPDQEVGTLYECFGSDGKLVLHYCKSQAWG
UniProt P56381: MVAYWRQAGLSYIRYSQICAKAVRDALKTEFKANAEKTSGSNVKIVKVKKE
UniProt Q9BPX5, whole entry, looked up: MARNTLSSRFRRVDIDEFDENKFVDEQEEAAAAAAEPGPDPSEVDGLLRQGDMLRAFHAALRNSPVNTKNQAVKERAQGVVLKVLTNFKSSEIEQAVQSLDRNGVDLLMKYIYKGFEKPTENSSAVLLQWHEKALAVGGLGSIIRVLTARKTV
UniProt Q13510, whole entry, looked up: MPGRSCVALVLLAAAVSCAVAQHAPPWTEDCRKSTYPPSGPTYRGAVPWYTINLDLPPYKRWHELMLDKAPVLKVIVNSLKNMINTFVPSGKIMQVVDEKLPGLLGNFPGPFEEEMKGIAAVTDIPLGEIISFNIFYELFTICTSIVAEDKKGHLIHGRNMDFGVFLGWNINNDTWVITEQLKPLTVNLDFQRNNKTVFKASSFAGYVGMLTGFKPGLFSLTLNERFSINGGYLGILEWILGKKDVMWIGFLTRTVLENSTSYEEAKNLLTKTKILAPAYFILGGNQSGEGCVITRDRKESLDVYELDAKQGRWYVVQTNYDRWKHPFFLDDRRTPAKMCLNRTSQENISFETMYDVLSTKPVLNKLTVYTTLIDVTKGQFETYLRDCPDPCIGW

In the supplement of paper PMC10849652 one finds log2 fold change data, which are given here for 32 targets.

Compound in this test: c1cn2cc(-c3ccc4cn[nH]c4c3)nc(Nc3ccc(N4CCOCC4)cc3)c2n1 [entospletinib]
The test is described as follows: log2 fold change, soluble protein after heating vs DMSO (PISA); higher = thermal stabilisation; K562 cells, 10 uM, 30 min; active = over 0.2 and 3.5 SD of the protein, either way, in both replicates (recomputed). The method in brief: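 K562 cells (2×10^6 cells/mL) were treated with 10 μM compound for 30 min, and aliquots were heated for 3 min over 48°C-58°C. Pooled aliquots were extracted in PBS with 0.5% NP-40 at 4°C, and the supernatant after 21,000xg for 90 min was measured by TMTpro 16plex LC-MS/MS with channel sums equalised. Reported thermal stability, relative to control samples and from duplicates, is a log2 fold change.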
As for ARMC1 (UniProt Q9NVT9), the log2 fold change was inactive: -0.064.

As to ARMCX3 (UniProt Q9UH62), the log2 fold change is inactive: -0.036. In the case of ATP5F1A (UniProt P25705), the log2 fold change was inactive: -0.019.

As for ARL8B (UniProt Q9NVJ2), the log2 fold change is inactive: 0.006. Take ATP5PB (UniProt P24539): the log2 fold change is inactive: 0.008. On to ARL8A (UniProt Q96BM9), for which the log2 fold change was inactive: -0.021. For the target ATP5MPL (UniProt P56378), the log2 fold change was inactive: 0.047. The result for ASCC2 (UniProt Q9H1I8) reads inactive: -0.034; that for ASF1A (UniProt Q9Y294), inactive: 0.015. On to ARL13B (UniProt Q3SXY8), for which the log2 fold change was inactive: 0.009. The result for ASCC3 (UniProt Q8N3C0) reads inactive: 0.035; that for ATM (UniProt Q13315), inactive: 0.06. Regarding ATPAF2 (UniProt Q8N5M1), the log2 fold change is inactive: 0.001. In the case of ATG2A isoform 3 (UniProt Q2TAZ0), the log2 fold change was inactive: -0.04. Turning to ARL6IP5 (UniProt O75915), the log2 fold change is inactive: -0.029. Regarding ATP5MG (UniProt O75964), the log2 fold change was inactive: 0.099. As to ASMTL (UniProt O95671), the log2 fold change is inactive: -0.019. On to ATP6V1E1 (UniProt P36543), for which the log2 fold change was inactive: 0.012. Regarding ATG4C (UniProt Q96DT6), the log2 fold change is inactive: 0.134. In the case of ATG16L1 (UniProt Q676U5), the log2 fold change was inactive: -0.051.

As to ASPSCR1 isoform 2 (UniProt Q9BZE9), the log2 fold change was inactive: 0.005.

Turning to ARRB1 isoform 2 (UniProt P49407), the log2 fold change is inactive: -0.01. For the target ATP2C1 isoform 7 (UniProt P98194), the log2 fold change was inactive: -0.006.

With ATF2 (UniProt P15336), the log2 fold change was inactive: -0.06. For ATP6V1A (UniProt P38606), the log2 fold change was inactive: -0.019. In the case of ATG12 (UniProt O94817), the log2 fold change was inactive: 0.044. As to ATP1A3 isoform 3 (UniProt P13637), the log2 fold change was inactive: 0.008.

As for ATP5F1E (UniProt P56381), the log2 fold change is inactive: 0.025. Turning to ARPC5L (UniProt Q9BPX5), the log2 fold change was inactive: -0.053. The result for ASNA1 (UniProt O43681) reads inactive: 0.007; that for ATPAF1 (UniProt Q5TC12), inactive: 0.086; that for ASAH1 isoform 2 (UniProt Q13510), inactive: -0.011.
